No constants are given. Whether binding was seen depends on the method and setting. In cells and extracts the contact can be indirect. Here binding means that the protein was enriched with, or labelled near, the bait; the list need not be complete.
Tests used:
[1] = target: T1, CD81 (human (endogenous in ARN8)) (UniProt P60033); assay: proximity labelling; only the binder purified
T1 sequence: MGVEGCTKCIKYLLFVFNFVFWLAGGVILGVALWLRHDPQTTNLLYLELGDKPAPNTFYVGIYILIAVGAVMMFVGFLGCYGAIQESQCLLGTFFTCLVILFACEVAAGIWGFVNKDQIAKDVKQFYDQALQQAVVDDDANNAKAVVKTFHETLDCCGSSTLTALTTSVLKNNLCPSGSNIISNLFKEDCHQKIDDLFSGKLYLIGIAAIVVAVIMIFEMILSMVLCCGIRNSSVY

By UniProt entry, the sequences of proteins in these tests, tags left out. Where a name states a change or a piece, a line headed by the entry shows the natural chain unless it says otherwise. Residues count along the entry.
UniProt P16070, residues 21-742: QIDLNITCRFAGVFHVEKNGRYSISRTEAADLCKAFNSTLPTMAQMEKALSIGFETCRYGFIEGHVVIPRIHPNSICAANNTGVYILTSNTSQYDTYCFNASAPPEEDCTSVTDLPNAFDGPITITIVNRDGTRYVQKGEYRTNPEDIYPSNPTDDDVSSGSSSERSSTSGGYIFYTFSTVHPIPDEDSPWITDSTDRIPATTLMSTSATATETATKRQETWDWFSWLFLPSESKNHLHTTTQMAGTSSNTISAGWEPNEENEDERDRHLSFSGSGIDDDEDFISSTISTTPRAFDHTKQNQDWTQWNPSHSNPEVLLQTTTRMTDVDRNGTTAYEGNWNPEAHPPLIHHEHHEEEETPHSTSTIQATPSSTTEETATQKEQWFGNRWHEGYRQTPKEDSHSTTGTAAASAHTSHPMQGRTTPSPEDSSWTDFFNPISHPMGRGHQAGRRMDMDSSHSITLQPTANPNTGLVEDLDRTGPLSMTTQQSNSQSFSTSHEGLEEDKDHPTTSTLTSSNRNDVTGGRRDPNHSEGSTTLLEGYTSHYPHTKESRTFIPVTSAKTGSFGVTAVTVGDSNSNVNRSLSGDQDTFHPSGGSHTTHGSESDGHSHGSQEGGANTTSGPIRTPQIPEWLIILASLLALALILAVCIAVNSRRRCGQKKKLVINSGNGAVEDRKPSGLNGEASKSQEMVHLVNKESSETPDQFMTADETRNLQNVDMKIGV
UniProt Q99075, residues 20-208: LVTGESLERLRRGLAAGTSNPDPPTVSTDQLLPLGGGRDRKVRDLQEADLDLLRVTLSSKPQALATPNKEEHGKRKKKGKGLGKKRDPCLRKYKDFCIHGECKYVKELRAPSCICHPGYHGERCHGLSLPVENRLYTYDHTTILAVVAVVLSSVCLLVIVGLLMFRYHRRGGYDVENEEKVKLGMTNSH
UniProt P00588: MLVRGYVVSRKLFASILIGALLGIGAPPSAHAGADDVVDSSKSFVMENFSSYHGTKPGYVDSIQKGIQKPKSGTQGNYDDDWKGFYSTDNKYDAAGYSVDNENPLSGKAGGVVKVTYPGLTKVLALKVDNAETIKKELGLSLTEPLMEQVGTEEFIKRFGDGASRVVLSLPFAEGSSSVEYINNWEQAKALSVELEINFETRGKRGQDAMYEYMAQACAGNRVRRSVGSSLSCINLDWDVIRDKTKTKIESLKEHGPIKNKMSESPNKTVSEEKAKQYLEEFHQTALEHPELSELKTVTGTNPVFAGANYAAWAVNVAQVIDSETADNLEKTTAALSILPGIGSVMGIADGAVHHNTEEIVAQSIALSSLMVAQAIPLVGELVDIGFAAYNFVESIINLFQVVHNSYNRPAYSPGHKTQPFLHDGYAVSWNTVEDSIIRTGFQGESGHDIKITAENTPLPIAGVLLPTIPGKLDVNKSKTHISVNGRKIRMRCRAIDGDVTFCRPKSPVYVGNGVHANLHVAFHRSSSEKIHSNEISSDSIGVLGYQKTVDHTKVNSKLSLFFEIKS

[2] = target: CD44 (human (endogenous in ARN8)) (UniProt P16070); assay: proximity labelling; only the binder purified
[3] = target: HBEGF overexpressed in ARN8 cells (ARN8:HBEGF^+) (UniProt Q99075); assay: proximity labelling; 150 nM recombinant protein and 50 µM biotin with RIPA lysate supernatant of ARN8 cells (legend: suspended cells), 10 minutes at RT; western blot with streptavidin and anti-HB-EGF; only the binder purified

Measured: binding

dtR-TurboID (receptor-binding domain of diphtheria toxin N-terminal to TurboID) (from UniProt P00588) (domain or fragment)
binds: all assays above

— article PMC11796423
